Data published in the supplement of paper PMC11732987, “Enantioselective OTUD7B fragment discovery through chemoproteomics screening and high-throughput optimisation” (Communications Chemistry, 2025).
The other results are listed elsewhere or left out. The data scatter; read single values as rough.

Assays:
[1] = compound: ClCC(=O)N[C@@H]1CCCc2ccccc12; assay: log2 mean competition ratio of IA-DTB cysteine labelling (DMSO/compound) (log2 ratio); higher = stronger cysteine engagement by compound; conditions: treatment time: 4 h, cell line lysate: HEK293T
Experimental: (§1)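 IA-DTB competitive cysteine chemoproteomics in HEK293T RIPA lysate. Lysates were treated with compound 29 or 30 at 50 or 200 µM for 4 h, then IA-DTB (500 µM, 1 h), trypsin-digested, NeutrAvidin-enriched and analysed by diaPASEF. Competition ratio = intensity DMSO / intensity compound (n=4 treated, n=64 DMSO); binding: mean log2 CR ≥ 1 and p ≤ 0.05 plus QC filters. Target is the cysteine site.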

[2] = compound: ClCC(=O)N[C@H]1CCCc2ccccc12; assay: as above; conditions: treatment time: 4 h, cell line lysate: HEK293T
Experimental: as §1

Target	log2 mean competition ratio ([1]; 50 µM)	log2 mean competition ratio ([1]; 200 µM)	log2 mean competition ratio ([2]; 50 µM)	log2 mean competition ratio ([2]; 200 µM)
ASXL2 C746 (UniProt Q76L83)	-0.0579	-0.241	0.374	-0.346
BCKDHB C235 (UniProt P21953)	-0.142	-0.4	-0.412	-0.466
BHLHE41 C203	-0.141	-0.0473	-0.248	0.142
ASPM C441 (UniProt Q8IZT6)	0.0138	0.372	0.171	0.168
BBX C870 (UniProt Q8WY36)	-0.359	0.281	-0.0949	0.505
BABAM2 C34 (UniProt Q9NXR7)	-0.0367	0.0906	-0.289	0.0694
BAZ1B C1420 (UniProt Q9UIG0)	0.0201	0.53	0.0685	0.625
ASPM C1088 (UniProt Q8IZT6)	-0.273	0.0652	-0.411	-0.0438
BIRC6 C4443	0.0581	0.0243	-0.193	-0.0142
ATP6V0D1 C326 (UniProt P61421)	0.0551	0.179	-0.171	0.00243
ATE1 C138 (UniProt O95260)	-0.177	-0.365	0.948	0.0181
BAG3 C151 (UniProt O95817)	0.147	-0.426	0.256	-0.229
ASXL2 C1225 (UniProt Q76L83)	-0.179	-0.0214	-0.435	0.163
BIRC6 C752	-0.00703	0.157	-0.19	0.0192
BEND3 C597 (UniProt Q5T5X7)	-0.251	0.237	-0.158	-0.0867
BCOR C23 (UniProt Q6W2J9)	-0.194	-0.148	-0.131	0.279
ATP2A2 C471 (UniProt P16615)	-0.0494	-0.0877	0.102	-0.0453
ATAD5 C1734 (UniProt Q96QE3)	0.218	-0.00747	0.42	0.235
BLOC1S2 C41 (UniProt Q6QNY1)	-0.364	0.0392	0.294	0.0737
ATG7 C406 (UniProt O95352)	-0.286	0.395	-0.357	0.516

Record cards, from the list above. Values in the order: log2 mean competition ratio ([1]; 50 µM)	log2 mean competition ratio ([1]; 200 µM)	log2 mean competition ratio ([2]; 50 µM)	log2 mean competition ratio ([2]; 200 µM)
BIRC6 C4443 as listed: 0.0581	0.0243	-0.193	-0.0142
BBX C870 (UniProt Q8WY36) as listed: -0.359	0.281	-0.0949	0.505
